These are literature values, as cited in patent US20070212428A1, “METHODS AND COMPOSITIONS FOR TREATING MOOD DISORDER” (MOOD MANAGEMENT SCIENCES, INC., priority 2004, published 2007).

Molecules are shown by their SMILES.

The conditions of series [1]: cited from earlier work.
In series [2] the test system is adrenergic (α1, α2, β), cholinergic, GABA, dopaminergic, histaminergic, serotonergic (5-HT1A, 5-HT1B, 5-HT2), or benzodiazepine receptors. The note with it: cited from earlier work.

As for `CN[C@H]1CC[C@@H](c2ccc(Cl)c(Cl)c2)c2ccccc21.Cl` [sertraline, (1S-cis)-4-(3,4-dichlorophenyl)-1,2,3,4-tetrahydro-N-methyl-1-naphthylamine hydrochloride], the “time to steady state plasma concentrations” value in series [1] (daily dosing) was “approximately 1 week”. Further, the affinity entry in series [2] was “no significant affinity”.
`CNCCC(Oc1ccc(C(F)(F)F)cc1)c1ccccc1.Cl` (racemic) [fluoxetine, (±)-N-methyl-3-phenyl-[(α,α,α-trifluoro-p-tolyl)oxyl]propylamine hydrochloride]: the plasma concentrations in series [1] (after 30 days of dosing at 40 mg/day) was 91 to 302 ng/mL.
